# Source: PubChem BioAssay AID686937 (Drosophila RNAi Screening Center, 2013)
# Purpose: 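Genes whose loss weakens secretory pathway function in fly cells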 (primary screen)
# Cell system: Drosophila S2 cells expressing secreted horseradish peroxidase
# Reagent: long dsRNA against Drosophila genes
# Timing: about 5.5 days (5 days dsRNA, then 12 h reporter induction)
# Challenge: reporter expression induced after 5 days of dsRNA, read 12 h later; inducer not stated
# Detection: 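Chemiluminescent measurement of peroxidase in the medium 12 h after reporter induction, following 5 days of dsRNA, given as a z-score per plate; higher means more secretion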
# Reading the numbers: z-score: higher = more reporter secreted into medium
# The screen tested about 23,000 reagents; this is an unselected part of those with a known target gene and a result. 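Reduced-secretion tags in replicate 1 do not always agree with the z-scores; no criterion for assigning the tags was given.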 The numbers tell different reagents against one gene apart. Not stated in the record: the amount of reagent.
target gene,dsRNA no.,"z-score, replicate 1","z-score, replicate 2","z-score, replicate 3","z-score, replicate 4","phenotype, replicate 1"
nmdyn-D6,1,0.35,0.16,,,
CG4476,1,0.47,-0.07,,,
CG6753,1,0.36,0.57,,,
CG13739,1,-2.82,-0.91,,,reduced secretion
CG7568,1,0.28,0.36,,,
Ent2,1,0.02,0.01,,,
CG6340,1,0.13,0.77,0.77,0.26,
ctp,1,-0.28,-1.05,,,
eIF3f2,1,-0.02,0.55,,,
Stt3B,1,-0.17,-0.11,,,
CG14695,1,0.16,0.48,,,
Cad96Cb,1,-0.12,-0.68,,,
Cad96Cb,2,0.45,0.37,,,
CG16775,1,0.37,-0.02,,,
CG13978,1,0.4,0.42,,,
fz2,1,0.31,-0.52,,,
fz2,2,0.35,0.29,0.27,0.15,
fz2,3,0.46,0.3,,,
Rep,1,-1.4,-1.31,,,
CG4577,1,0.24,0.31,,,
CG8611,1,0.23,0.33,,,
CG17258,1,0.75,0.29,,,
CG17258,2,0.11,0.2,,,
Vha100-1,1,0.39,0.45,,,
meep,1,0.72,0.26,,,
Cpr73D,1,0.33,0.48,,,
CG12991,1,0.36,0.43,,,
CG1698,1,0.46,0.47,,,
Gyg,1,-3.31,-1.47,,,reduced secretion
Gyg,2,0.27,0.23,,,
pps,1,0.28,0.09,,,
CG30289,1,-0.26,0.08,,,
Gr59b,1,0.2,0.34,,,
